The text below walks through data of article PMC4191416.

Chains of the proteins cited; added tags and fusions are not shown.
UniProt Q9UT24: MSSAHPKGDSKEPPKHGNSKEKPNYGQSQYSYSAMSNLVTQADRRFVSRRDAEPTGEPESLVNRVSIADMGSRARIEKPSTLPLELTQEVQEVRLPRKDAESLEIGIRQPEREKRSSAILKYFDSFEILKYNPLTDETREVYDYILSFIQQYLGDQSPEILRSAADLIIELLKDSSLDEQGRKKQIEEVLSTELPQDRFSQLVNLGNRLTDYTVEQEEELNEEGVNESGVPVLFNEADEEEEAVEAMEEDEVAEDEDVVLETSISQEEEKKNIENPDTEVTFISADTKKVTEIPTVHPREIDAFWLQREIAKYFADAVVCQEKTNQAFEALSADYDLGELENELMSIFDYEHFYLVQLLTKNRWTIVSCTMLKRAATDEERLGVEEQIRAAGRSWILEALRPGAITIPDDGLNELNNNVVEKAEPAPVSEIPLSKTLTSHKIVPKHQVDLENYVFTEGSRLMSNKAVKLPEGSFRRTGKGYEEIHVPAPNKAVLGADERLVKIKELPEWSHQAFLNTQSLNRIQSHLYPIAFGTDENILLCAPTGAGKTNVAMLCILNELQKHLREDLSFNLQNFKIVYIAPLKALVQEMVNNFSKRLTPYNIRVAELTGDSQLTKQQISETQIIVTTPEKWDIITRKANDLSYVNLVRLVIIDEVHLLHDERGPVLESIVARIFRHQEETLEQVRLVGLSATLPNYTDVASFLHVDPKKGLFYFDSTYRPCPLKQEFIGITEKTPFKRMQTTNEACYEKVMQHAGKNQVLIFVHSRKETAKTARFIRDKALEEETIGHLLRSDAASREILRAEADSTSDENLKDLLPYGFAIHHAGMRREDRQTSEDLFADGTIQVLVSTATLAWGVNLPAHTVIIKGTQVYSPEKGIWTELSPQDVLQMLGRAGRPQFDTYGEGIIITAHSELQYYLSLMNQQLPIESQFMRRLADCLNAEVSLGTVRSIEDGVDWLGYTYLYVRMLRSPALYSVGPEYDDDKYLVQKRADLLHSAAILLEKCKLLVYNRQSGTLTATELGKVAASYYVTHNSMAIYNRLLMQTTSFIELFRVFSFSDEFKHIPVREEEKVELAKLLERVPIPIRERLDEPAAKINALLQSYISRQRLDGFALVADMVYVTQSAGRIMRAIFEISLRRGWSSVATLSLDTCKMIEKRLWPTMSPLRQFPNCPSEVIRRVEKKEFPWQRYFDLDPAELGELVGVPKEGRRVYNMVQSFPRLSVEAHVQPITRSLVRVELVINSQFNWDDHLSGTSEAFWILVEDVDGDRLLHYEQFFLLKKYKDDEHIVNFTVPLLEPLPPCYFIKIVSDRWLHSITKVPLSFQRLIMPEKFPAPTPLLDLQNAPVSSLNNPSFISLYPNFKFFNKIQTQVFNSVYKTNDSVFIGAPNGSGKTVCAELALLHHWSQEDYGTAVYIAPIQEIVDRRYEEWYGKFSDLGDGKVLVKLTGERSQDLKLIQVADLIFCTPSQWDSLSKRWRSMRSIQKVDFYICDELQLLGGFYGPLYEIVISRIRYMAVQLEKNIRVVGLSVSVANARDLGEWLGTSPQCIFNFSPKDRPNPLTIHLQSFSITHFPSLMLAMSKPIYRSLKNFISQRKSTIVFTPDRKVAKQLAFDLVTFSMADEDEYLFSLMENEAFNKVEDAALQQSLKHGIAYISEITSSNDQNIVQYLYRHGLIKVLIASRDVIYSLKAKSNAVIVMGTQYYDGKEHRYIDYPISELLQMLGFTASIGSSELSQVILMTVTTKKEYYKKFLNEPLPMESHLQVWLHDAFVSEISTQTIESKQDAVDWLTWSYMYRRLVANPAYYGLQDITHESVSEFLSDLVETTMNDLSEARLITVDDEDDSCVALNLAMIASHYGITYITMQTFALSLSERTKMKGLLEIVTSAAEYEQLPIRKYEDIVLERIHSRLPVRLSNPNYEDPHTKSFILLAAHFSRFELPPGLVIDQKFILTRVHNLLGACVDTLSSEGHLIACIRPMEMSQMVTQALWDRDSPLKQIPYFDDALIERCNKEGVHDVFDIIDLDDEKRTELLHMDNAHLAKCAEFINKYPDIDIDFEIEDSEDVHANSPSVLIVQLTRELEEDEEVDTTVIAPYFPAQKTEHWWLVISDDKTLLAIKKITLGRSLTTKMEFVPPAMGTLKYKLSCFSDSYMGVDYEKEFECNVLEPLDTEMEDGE

Assay [1] addresses T1, Tls1 fused with the GAL4 DNA-binding domain (S. pombe) (UniProt Q10148).
T1 sequence: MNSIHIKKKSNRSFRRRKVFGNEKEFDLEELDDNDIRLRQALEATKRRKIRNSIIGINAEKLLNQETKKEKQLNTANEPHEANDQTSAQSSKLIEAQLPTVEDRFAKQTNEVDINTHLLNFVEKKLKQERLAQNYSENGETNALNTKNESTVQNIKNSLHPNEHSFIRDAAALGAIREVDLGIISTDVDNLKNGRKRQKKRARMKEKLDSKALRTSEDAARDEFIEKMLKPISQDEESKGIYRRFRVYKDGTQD
The assay is described as follows: two-hybrid; Tls1 fused with the GAL4 DNA-binding domain (pGBT9), Brr2 with the GAL4 activation domain (pGAD424), strain pJ69-4A; HIS3 reporter, growth on medium lacking histidine.

For assay [2], the target named is T2, N-terminal Flag-tagged Tls1 (S. pombe) (UniProt Q10148).
T2 sequence: T1 sequence
Kind of assay: co-IP; whole cell extracts incubated with Flag-agarose beads to pull down Flag-Tls1; western blot with Flag and myc antibodies; 1xHC buffer with 250 mM KCl. Background: Immunoblotting shows a protein as a band on a membrane.

These are yes or no findings as the source states them, for the method shown. For some assays here: Binding seen in cells or lysates may run through a third protein. Some results given as binding are weak or reduced against the parent protein; the word gives no strength. Sequences can lack the tags named with a protein.

As to “Brr2 fused with the GAL4 activation domain (from UniProt Q9UT24 1-2176)”, the binding result in assay [1] is listed as “binds”.

For the substance “C-terminal myc-tagged Brr2 (from UniProt Q9UT24 1-2176)”, the binding result in assay [2] was “binds”.
